Laboratory results from US8269017B2, “Compounds for the treatment of proliferative disorders” (Synta Pharmaceuticals Corporation, priority 2005, dated 2012).
“Also recorded” adds a separate entry of the source. For at least one compound, name, drawing or mass did not settle the structure.

Legend:
[1] = system: human tumor cell line MDA-MB-435S; assay: Nude mouse xenograft, MDA-MB-435S (Example 10); assay type: in vivo; details: Compound 169 at 2 mg/kg, Compound 174 at 4.55 mg/kg body weight, i.v., 1 time/week, 3 doses; Hydrochloride
Experimental: Seven to eight week old, female Crl:CD-1-nuBR (nude) mice were obtained from Charles River Laboratories (Wilmington, Mass., USA). Animals were housed 4-5/cage in micro-isolators, with a 12 hr/12 hr light/dark cycle, acclimated for at least 1 week prior to use and fed normal laboratory chow ad libitum. Studies were conducted on animals between 8 and 10 weeks of age at implantation. To implant MDA-MB-4355 tumor cells into nude mice, the cells were trypsinized as above, washed in PBS and resusupended at a concentration of 50×10(6) cells/ml in PBS. Using a 27 gauge needle and 1 cc syringe, 0.1 ml of the cell suspension was injected into the corpus adiposum of nude mice. The corpus adiposum is a fat body located in the ventral abdominal vicera in the right quadrant of the abdomen at the juncture of the os coxae (pelvic bone) and the os femoris (femur).
Tumors were then permitted to develop in vivo until the majority reached an average of 100-200 mm^3 in tumor volume, which typically required 2-3 weeks following implantation. […] Tumor volumes (V) were calculated by caliper measurement of the width (W), length (L) and thickness (T) of tumors using the following formula: V=0.5236×(L×W×T). […]

[2] = system: EMT6 mouse mammary carcinoma; assay: Tumor growth delay assay, EMT6 tumor model in nude mice; assay type: in vivo, nude mouse; details: single i.v. bolus 4.55 or 3.22 mg/kg body weight, over subsequent 3 days; Hydrochloride
[3] = system: EMT6 mouse mammary carcinoma tumor vasculature; assay: Evans Blue dye assay (vascular disrupting activity), EMT6 tumor model in nude mice; assay type: in vivo, nude mouse; details: single i.v. bolus 4.55, 3.22 or 2.28 mg/kg body weight, at +4 hr; Hydrochloride

COc1ccc(-c2cnoc2-c2cc(OC)c(OC)c(OC)c2)cc1NC(=O)C(N)Cc1ccccc1.Cl (stereo not drawn) [Compound 174, 2-amino-N-(2-methoxy-5-(5-(3,4,5-trimethoxyphenyl)isoxazol-4-yl)phenyl)-3-phenylpropanamide Hydrochloride]
in vivo growth rate of MDA-MB-435S tumors [1]: substantially inhibited tumor growth; also recorded: substantially decreased the growth rate | tumor growth relative to vehicle [2]: substantially decreased tumor growth; also recorded: substantially inhibited tumor growth | tumor dye uptake relative to vehicle [3]: substantially decreased tumor dye uptake; also recorded: substantial decreases in tumor dye uptake
